Data set [1] deals with C/EBPβ (cos/β) (UniProt P17676). Nature of the data set: EMSA. Conditions: 20 mM Hepes pH 7.9, 40 mM KCl, 10% glycerol, 0.1% NP-40, 0.5 mM EDTA, 1 mM PMSF, 0.5 mM DTT, 1 µg poly(dG-dC), 1 µl FBS, 30 min room temperature; 4% native gel; protein in a lysate after overexpression; label: 32P (Klenow, [α-32P]dCTP). In general terms: In EMSA bound probe runs differently from free probe, usually more slowly.

Protein sequences, listed by entry. Tags and fused reporters are not part of them. Residues count along the entry.
UniProt P17676, 24-345: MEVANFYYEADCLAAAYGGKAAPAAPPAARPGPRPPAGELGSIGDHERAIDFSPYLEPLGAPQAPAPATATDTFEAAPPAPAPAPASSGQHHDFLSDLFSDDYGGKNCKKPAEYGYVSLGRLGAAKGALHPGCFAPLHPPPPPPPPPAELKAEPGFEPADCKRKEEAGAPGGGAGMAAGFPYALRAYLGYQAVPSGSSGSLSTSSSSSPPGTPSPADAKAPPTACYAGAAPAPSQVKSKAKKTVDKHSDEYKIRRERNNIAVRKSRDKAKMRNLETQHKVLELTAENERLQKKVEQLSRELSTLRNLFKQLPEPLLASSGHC
UniProt P53566, whole entry: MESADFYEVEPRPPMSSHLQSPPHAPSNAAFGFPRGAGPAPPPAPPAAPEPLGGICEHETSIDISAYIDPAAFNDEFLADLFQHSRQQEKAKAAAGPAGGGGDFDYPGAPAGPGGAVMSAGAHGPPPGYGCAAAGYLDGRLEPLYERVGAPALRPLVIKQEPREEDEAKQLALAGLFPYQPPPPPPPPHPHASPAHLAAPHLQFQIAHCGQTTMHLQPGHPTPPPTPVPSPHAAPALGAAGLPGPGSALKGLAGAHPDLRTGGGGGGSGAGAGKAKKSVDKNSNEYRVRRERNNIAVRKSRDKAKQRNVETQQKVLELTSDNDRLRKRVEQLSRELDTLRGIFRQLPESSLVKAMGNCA
UniProt P49716, whole entry, stated change not applied: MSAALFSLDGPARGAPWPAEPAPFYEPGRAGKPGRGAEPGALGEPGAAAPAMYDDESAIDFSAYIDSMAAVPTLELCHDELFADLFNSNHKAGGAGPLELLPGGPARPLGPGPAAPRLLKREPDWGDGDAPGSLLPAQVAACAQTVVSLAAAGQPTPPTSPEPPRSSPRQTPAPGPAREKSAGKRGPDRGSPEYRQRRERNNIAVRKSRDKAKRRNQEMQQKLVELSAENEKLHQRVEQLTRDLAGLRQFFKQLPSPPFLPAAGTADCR

For data set [2], the target named is C/EBPα (cos/α) (UniProt P53566). Nature of the data set: EMSA. Particulars: 20 mM Hepes pH 7.9, 40 mM KCl, 10% glycerol, 0.1% NP-40, 0.5 mM EDTA, 1 mM PMSF, 0.5 mM DTT, 1 µg poly(dG-dC), 1 µl FBS, 30 min room temperature; 4% native gel; protein in a lysate after overexpression; label: 32P (Klenow, [α-32P]dCTP).
For data set [3], the target named is T1, C/EBPδ (cos/δ) (UniProt Q00322).
T1 sequence (looked up, limits assumed): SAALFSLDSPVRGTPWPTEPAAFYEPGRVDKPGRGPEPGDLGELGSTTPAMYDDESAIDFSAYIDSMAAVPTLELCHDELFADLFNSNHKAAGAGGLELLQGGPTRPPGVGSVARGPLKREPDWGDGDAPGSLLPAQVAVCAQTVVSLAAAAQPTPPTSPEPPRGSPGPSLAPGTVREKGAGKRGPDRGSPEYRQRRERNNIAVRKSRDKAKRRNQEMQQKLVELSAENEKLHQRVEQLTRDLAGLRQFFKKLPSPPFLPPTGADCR
Nature of the data set: EMSA. Particulars: 20 mM Hepes pH 7.9, 40 mM KCl, 10% glycerol, 0.1% NP-40, 0.5 mM EDTA, 1 mM PMSF, 0.5 mM DTT, 1 µg poly(dG-dC), 1 µl FBS, 30 min room temperature; 4% native gel; protein in a lysate after overexpression; label: 32P (Klenow, [α-32P]dCTP).

Data set [4] addresses C/EBPδ (endogenous) (human) (UniProt P49716). Nature of the data set: EMSA, supershift. Particulars: 20 mM Hepes pH 7.9, 40 mM KCl, 10% glycerol, 0.1% NP-40, 0.5 mM EDTA, 1 mM PMSF, 0.5 mM DTT, 1 µg poly(dG-dC), 1 µl FBS, 30 min room temperature, 4% native gel, protein in an extract, label: 32P (Klenow, [α-32P]dCTP).
The target of data set [5] is C/EBPβ (cos/β) (UniProt P17676). Nature of the data set: EMSA, supershift. Conditions: 20 mM Hepes pH 7.9, 40 mM KCl, 10% glycerol, 0.1% NP-40, 0.5 mM EDTA, 1 mM PMSF, 0.5 mM DTT, 1 µg poly(dG-dC), 1 µl FBS, 30 min room temperature; 4% native gel; protein in a lysate after overexpression; label: 32P (Klenow, [α-32P]dCTP).
In data set [6] the target is C/EBPα (cos/α) (UniProt P53566). Nature of the data set: EMSA, supershift. Conditions: 20 mM Hepes pH 7.9, 40 mM KCl, 10% glycerol, 0.1% NP-40, 0.5 mM EDTA, 1 mM PMSF, 0.5 mM DTT, 1 µg poly(dG-dC), 1 µl FBS, 30 min room temperature; 4% native gel; protein in a lysate after overexpression; label: 32P (Klenow, [α-32P]dCTP).
In data set [7] the target is T1, C/EBPδ (cos/δ). Nature of the data set: EMSA, supershift. Conditions: 20 mM Hepes pH 7.9, 40 mM KCl, 10% glycerol, 0.1% NP-40, 0.5 mM EDTA, 1 mM PMSF, 0.5 mM DTT, 1 µg poly(dG-dC), 1 µl FBS, 30 min room temperature; 4% native gel; protein in a lysate after overexpression; label: 32P (Klenow, [α-32P]dCTP).
The target of data set [8] is C/EBPβ (endogenous) (human) (UniProt P17676). Nature of the data set: EMSA, supershift. Conditions: 20 mM Hepes pH 7.9, 40 mM KCl, 10% glycerol, 0.1% NP-40, 0.5 mM EDTA, 1 mM PMSF, 0.5 mM DTT, 1 µg poly(dG-dC), 1 µl FBS, 30 min room temperature, 4% native gel, protein in an extract, label: 32P (Klenow, [α-32P]dCTP).

Construct, isoform or probe ends are uncertain for at least one entry. At least one result comes from cells or an extract, where the contact may be indirect. For some assays here: A negative result means that nothing was seen under these conditions. For some assays here: Where a protein sequence is shown, tags need not be part of it. For some assays here: Weaker means in comparison with the reference protein, sequence or condition of that experiment.

In the case of “CTAGCATCTGCAGAGGTATACCTCTGCAC / TCGAGTGCAGAGGTATACCTCTGCAGATG [Mutant C/EBP consensus]”, the binding result with C/EBPβ (cos/β) [1], in the data set with C/EBPα (cos/α) [2] and in the data set with C/EBPδ (cos/δ) [3] was “no binding” in each case.
In the case of “CTAGCATCTGCAGATTGCGCAATCTGCAC / TCGAGTGCAGATTGCGCAATCTGCAGATG [C/EBP consensus]”, the binding result in data set [4] (HEK1 and SCC13 nuclear extracts, minor binding) is given as “binds more weakly”; in data set [4] (whole-tissue lysates, normal skin and SCC, weakly positive), “binds more weakly”; with C/EBPβ (cos/β) [5], “binds”; with C/EBPα (cos/α) [6], “binds”; with C/EBPδ (cos/δ) [7], “binds”; in data set [8] (HEK1 and SCC13 nuclear extracts) it was “binds”. Besides, the binding result in data set [8] (HEK1 whole-cell vs nuclear extract) is reported as “binds”; in data set [8] (whole-tissue lysates, normal skin and SCC) it was “binds”.
